Assay results: patent EP1271240B1, “Silver halide color photographic material” (KONICA CORPORATION, priority 2001, dated 2003)

Assay: Visual evaluation of prints for color reproduction and blackness by five persons
Method: Furthermore, samples were evaluated with respect to color reproduction in the following manner. First, Macbeth color checker was photographed using color negative film (Konica Color Centuria 400, available from Konica Corp.) and a camera (Konica FT-1 MOTOR, product by Konica Corp.). Then, photographed film was processed in color negative processing (CNK-4, available from Konica Corp.) and obtained negative images were printed on each of the foregoing sample Nos. 19 through 31 with a size of 82x117 mm, using Konica Color Printer CL-P 2000 (available from Konica Corp.), in which the printing condition was set for each of the samples so that gray on the color checker was reproduced as gray in the print. The thus obtained prints were visually evaluated with respect to color reproduction and blackness. Evaluation was conducted by five persons and marked in accordance with the number of persons approving the print, as below: […]

[1] = prints of Macbeth color checker, number of five persons approving

Row | Compound | blackness (judgement in words, Table 3) | blackness [1]
1 | CCC(C)(C)c1ccc(OCCCCNC(=O)C(NC(=O)c2nn3c(-c4ccc(Cl)c(Cl)c4)n[nH]c3c2Cl)C(C)C)c(C(C)(C)CC)c1 (stereo not shown) [Coupler d] | insufficient | 2 (2 marks: 2 persons)
2 | CCC(C)(C)c1ccc(OCCCCNC(=O)c2nn3c(-c4cc(Cl)cc(Cl)c4)n[nH]c3c2Cl)c(C(C)(C)CC)c1 [Coupler b] | insufficient | 2 (2 marks: 2 persons)
